Assay results: patent US20130230528A1 (Novartis, published 2013)
No constants are given. Whether binding was seen depends on the method and setting. Some results given as binding are weak or reduced against the parent protein; the word gives no strength.

By UniProt entry, the sequences of proteins in these tests, tags left out. Where a name states a change or a piece, a line headed by the entry shows the natural chain unless it says otherwise.
UniProt P25942: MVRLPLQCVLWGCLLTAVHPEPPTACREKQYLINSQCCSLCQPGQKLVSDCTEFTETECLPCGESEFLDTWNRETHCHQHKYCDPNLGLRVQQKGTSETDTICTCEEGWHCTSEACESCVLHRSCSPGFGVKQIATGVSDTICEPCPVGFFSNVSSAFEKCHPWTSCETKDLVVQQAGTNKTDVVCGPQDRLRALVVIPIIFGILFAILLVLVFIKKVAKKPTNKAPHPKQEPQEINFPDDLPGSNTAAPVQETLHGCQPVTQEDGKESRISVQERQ

Target: human CD40, soluble / recombinant (ELISA and Biacore) (human) (UniProt P25942)
Experiment: ELISA-type assays on soluble CD40

Row | binding | Binder
1 | binds | CHIR-5.9 fully human anti-CD40 monoclonal antibody (antibody, V domains shown, Human IgG1 kappa from XenoMouse hybridoma; also called mAb CHIR-5.9; 131.2F8.5.9) VH: EVQLVQSGAEVKKPGESLKISCKGSGYSFTSYWIGWVRQMPGKGLEWMGIIYPGDSDTRYSPSFQGQVTISADKSISTAYLQWSSLKASDTAMYYCARGTAAGRDYYYYYGMDVWGQGTTVTVSS VL: AIVMTQPPLSSPVTLGQPASISCRSSQSLVHSDGNTYLNWLQQRPGQPPRLLIYKFFRRLSGVPDRFSGSGAGTDFTLKISRVEAEDVGVYYCMQVTQFPHTFGQGTRLEIKR
2 | binds | CHIR-12.12 fully human anti-CD40 monoclonal antibody (antibody, human IgG1, kappa, V domains shown, Human IgG1 kappa from XenoMouse hybridoma; also called 153.8E2.D10.D6.12.12) VH: QVQLVESGGGVVQPGRSLRLSCAASGFTFSSYGMHWVRQAPGKGLEWVAVISYEESNRYHADSVKGRFTISRDNSKITLYLQMNSLRTEDTAVYYCARDGGIAAPGPDYWGQGTLVTVSS VL: DIVMTQSPLSLTVTPGEPASISCRSSQSLLYSNGYNYLDWYLQKPGQSPQVLISLGSNRASGVPDRFSGSGSGTDFTLKISRVEAEDVGVYYCMQARQTPFTFGPGTKVDIRR
